The other results are listed elsewhere or left out.
These targets were tested with c1cn2cc(-c3ccc4cn[nH]c4c3)nc(Nc3ccc(N4CCOCC4)cc3)c2n1 [entospletinib] (assay: log2 fold change, soluble protein after heating vs DMSO (PISA); higher = thermal stabilisation; K562 cells, 10 uM, 30 min; active = over 0.2 and 3.5 SD of the protein, either way, in both replicates (recomputed)).
Method in brief: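 Soluble protein was quantified by TMTpro 16plex LC-MS/MS after channel sums were equalised. It was obtained as the supernatant after 21,000xg for 90 min from pooled aliquots of K562 cells (2×10^6 cells/mL, 10 μM compound, 30 min) heated for 3 min across 48°C-58°C and extracted in PBS with 0.5% NP-40 at 4°C. Thermal stability values are relative to control samples and come from duplicates. They are given as log2 fold changes.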

Chains of the proteins cited; added tags and fusions are not shown. Lines headed by an entry give the natural chain unless they say otherwise; changes in a name come on top.
UniProt A0JLT2: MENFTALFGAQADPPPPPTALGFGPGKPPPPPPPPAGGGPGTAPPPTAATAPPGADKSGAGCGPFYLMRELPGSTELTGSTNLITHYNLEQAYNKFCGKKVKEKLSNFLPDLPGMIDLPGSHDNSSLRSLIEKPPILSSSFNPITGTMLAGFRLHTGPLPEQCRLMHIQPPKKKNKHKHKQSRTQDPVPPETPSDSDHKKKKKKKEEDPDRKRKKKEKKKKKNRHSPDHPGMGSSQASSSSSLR
UniProt Q96GW9: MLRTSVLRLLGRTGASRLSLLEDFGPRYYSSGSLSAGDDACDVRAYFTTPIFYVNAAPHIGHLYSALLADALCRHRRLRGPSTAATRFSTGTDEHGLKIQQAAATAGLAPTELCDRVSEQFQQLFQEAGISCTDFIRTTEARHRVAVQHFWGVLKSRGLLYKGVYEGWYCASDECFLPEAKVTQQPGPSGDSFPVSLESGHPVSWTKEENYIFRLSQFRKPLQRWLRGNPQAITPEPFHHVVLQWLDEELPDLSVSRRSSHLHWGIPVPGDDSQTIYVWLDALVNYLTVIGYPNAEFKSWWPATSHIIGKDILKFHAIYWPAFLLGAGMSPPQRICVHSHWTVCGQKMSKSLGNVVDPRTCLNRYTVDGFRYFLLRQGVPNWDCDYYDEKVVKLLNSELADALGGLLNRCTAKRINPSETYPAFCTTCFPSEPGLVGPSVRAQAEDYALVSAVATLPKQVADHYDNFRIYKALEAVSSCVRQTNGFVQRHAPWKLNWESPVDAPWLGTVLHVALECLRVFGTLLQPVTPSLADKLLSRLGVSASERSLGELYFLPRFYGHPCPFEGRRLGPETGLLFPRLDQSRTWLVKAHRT
UniProt Q96RQ3: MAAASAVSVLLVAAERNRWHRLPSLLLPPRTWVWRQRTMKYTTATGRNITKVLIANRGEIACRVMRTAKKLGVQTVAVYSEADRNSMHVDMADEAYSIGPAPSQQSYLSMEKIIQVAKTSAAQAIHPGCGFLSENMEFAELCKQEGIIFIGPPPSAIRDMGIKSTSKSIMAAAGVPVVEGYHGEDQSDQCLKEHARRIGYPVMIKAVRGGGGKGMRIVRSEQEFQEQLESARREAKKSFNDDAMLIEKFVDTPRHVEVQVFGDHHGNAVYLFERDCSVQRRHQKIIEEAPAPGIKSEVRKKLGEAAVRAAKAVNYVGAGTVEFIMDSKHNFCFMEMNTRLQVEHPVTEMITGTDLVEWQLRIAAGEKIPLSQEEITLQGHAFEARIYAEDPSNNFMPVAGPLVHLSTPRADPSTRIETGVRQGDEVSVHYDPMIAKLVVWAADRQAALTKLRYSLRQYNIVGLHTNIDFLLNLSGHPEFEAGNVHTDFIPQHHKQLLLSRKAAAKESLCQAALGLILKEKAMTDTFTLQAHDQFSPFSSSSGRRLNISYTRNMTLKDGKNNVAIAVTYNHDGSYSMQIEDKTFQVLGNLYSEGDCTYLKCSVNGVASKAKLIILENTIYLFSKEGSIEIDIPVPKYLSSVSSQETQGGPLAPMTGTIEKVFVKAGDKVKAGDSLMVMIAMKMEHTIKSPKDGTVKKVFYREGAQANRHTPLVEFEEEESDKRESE
UniProt P31153, whole entry, looked up: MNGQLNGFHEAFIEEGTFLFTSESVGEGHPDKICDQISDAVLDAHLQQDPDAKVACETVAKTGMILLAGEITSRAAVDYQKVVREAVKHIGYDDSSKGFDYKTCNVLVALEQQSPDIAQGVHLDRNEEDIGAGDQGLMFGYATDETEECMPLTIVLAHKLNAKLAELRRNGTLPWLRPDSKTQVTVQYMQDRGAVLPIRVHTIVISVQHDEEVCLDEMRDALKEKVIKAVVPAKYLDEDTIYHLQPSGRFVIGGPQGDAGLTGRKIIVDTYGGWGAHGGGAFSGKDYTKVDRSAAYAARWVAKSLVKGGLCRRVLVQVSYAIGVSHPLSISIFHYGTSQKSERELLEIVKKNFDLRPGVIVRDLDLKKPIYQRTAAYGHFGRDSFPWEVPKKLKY
UniProt Q5JRA6: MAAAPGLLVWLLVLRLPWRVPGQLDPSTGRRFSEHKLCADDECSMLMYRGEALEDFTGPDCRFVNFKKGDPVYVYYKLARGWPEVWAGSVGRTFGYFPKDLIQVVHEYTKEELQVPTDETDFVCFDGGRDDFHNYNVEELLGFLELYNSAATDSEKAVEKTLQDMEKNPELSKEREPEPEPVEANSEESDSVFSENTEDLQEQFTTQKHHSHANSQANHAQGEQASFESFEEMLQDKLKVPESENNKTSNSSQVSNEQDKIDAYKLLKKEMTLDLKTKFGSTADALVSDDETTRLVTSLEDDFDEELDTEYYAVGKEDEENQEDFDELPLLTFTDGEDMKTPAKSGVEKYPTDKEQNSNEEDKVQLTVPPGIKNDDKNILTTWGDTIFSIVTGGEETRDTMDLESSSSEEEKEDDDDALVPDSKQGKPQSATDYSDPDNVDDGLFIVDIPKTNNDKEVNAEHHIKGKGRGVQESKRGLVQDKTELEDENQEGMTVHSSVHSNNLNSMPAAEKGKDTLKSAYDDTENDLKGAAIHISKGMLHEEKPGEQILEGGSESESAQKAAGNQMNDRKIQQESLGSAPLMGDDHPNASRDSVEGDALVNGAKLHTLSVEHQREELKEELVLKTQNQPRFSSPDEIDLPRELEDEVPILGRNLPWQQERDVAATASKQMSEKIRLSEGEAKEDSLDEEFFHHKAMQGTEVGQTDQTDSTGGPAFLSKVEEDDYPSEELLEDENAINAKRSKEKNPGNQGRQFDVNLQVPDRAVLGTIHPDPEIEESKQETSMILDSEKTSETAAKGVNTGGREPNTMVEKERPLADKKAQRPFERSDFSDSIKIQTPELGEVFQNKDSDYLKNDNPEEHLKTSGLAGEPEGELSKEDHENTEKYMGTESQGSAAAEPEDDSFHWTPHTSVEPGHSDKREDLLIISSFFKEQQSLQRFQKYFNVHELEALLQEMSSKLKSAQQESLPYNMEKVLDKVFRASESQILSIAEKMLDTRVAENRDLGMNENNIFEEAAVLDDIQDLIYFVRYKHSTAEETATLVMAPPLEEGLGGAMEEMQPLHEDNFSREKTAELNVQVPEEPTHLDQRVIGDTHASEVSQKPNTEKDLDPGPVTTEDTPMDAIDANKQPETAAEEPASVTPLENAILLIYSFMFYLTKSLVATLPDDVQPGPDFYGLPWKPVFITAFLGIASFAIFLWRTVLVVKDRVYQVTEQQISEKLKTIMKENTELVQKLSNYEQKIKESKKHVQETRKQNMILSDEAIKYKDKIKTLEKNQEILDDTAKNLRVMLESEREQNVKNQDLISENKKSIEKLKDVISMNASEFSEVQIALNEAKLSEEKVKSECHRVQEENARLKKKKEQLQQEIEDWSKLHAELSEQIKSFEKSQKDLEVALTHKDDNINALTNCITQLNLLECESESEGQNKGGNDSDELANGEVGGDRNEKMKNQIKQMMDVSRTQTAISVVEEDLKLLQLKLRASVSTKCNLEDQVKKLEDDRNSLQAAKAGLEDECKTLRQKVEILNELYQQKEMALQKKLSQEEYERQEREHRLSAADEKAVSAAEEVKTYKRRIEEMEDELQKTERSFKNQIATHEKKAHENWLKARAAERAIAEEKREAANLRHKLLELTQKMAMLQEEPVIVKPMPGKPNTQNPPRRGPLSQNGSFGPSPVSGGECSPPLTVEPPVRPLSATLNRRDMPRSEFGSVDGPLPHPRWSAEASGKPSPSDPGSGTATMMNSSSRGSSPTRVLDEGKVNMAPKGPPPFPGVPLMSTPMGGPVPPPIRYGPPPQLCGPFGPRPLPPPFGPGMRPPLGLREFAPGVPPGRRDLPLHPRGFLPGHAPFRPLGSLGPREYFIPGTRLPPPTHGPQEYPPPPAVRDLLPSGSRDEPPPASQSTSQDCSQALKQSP
UniProt P56270: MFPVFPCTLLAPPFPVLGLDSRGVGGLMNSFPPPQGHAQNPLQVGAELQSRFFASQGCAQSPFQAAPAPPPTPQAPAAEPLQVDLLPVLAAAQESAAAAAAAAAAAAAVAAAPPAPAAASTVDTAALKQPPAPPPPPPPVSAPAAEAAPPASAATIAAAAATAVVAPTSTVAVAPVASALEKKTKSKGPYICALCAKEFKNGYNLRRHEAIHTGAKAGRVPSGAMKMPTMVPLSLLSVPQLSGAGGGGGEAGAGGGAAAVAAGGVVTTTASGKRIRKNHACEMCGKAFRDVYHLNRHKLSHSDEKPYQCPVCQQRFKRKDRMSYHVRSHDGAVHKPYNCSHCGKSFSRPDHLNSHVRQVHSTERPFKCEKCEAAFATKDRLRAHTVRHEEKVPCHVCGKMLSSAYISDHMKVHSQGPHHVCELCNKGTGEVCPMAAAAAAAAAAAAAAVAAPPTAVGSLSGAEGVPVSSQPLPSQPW

log2 fold change, inactive:
MED19 (UniProt A0JLT2) -0.01
MARS2 (UniProt Q96GW9) -0.007
MCCC1 (UniProt Q96RQ3) 0.08
MAT2A (UniProt P31153) 0.008
MIA3 (UniProt Q5JRA6) -0.023
MAZ isoform 2 (UniProt P56270) 0.135
